# In PubChem BioAssay AID1347076 (National Center for Advancing Translational Sciences (NCATS), 2019):
# Among all 400,000 compounds or so, about 13,000 (3.2%) were called active. Inconclusive means that the source gave no clear call. Such entries were picked first, then a sample of the others. Calls follow the shape of the dose curve; as a rule, active = well fitted cell-killing curve with a large enough effect; inconclusive = small, poorly fitted or top-dose-only effect, or effect the other way; inactive = flat fitted curve, though single readings scatter. Potencies beside an inconclusive call are fits to weak or partial responses and may not hold up.
# Assay: qHTS assay for MDR1-selective chemotherapeutics: Primary screen using the drug-selected MDR subline cells KB-V1; also: nearly all actives have a fitted effect of over 60% in size
# Conditions: KB-V1 MDR cells viability, CellTiter-Glo, 72 h; activity change, negative = cytotoxicity: at 46.1 µM (top of the series)
# How it was run: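 Drug-selected KB-V1 cells, grown in DMEM lacking phenol red with 10% FBS, receive compound titrations; after three days at 37 degrees C, surviving cell ATP is quantified by CellTiter-Glo luminescence and responses normalized and curve-fitted.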
# % is scaled to controls: 0 for no effect and ±100 for the full control effect; potency is read from the fitted curve at half-maximal effect.
Structure (SMILES),Potency,"activity change, negative = cytotoxicity"
COc1ccc(S(=O)(=O)N2CCN(CC(=O)c3[nH]c(C)c(C(C)=O)c3C)CC2)cc1OC,"inconclusive: 9.2 µM [cytotoxic, partial curve]",–
N#Cc1ccccc1S(=O)(=O)N1CCN(CC(=O)NC(=O)NC2CCCCC2)CC1,"inconclusive: 10.3 µM [cytotoxic, partial curve, poor fit]",–
O=C(Nc1ccccn1)C1CCN(S(=O)(=O)c2ccccc2)CC1,active: 18.4 µM,–
CCOc1ccc(NC(=O)c2ccccc2NC(=O)c2cccnc2)cc1,–,inactive: -1.2%
c1ccc2c(Nc3ccc(N4CCOCC4)cc3)nc(N3CCOCC3)nc2c1,"inconclusive: 16.4 µM [cytotoxic, partial curve, poor fit]",–
c1ccc(SCCOCCn2cncn2)cc1,"inconclusive: 20.6 µM [rising, partial curve, poor fit]",–
COC(=O)c1cn(C)c2ccc(S(=O)(=O)N3CC(C)CC(C)C3)cc2c1=O (stereo not given),"inconclusive: 16.4 µM [cytotoxic, partial curve, poor fit]",–
O=C(CN(Cc1ccco1)C(=O)CNS(=O)(=O)c1ccc(Cl)cc1)NCc1ccco1,–,inactive: 2.01%
COc1ccc(C(=O)Nc2ccc(S(=O)(=O)N3CCc4ccccc43)cc2)cc1,active: 2.59 µM,–
O=S1(=O)CCN2C(=N1)Sc1c2ccc2c1CCCC2,active: 4.61 µM,–
COc1ccc(C(=O)N(CC(=O)Nc2sc(C)c(C)c2C(N)=O)C2CCCC2)cc1,"inconclusive: 7.31 µM [cytotoxic, partial curve]",–
N#CCSc1nc2ccccc2c(=O)n1CCCC(=O)NCc1ccco1,"inconclusive: 23.1 µM [cytotoxic, partial curve, poor fit]",–
O=[N+]([O-])c1cc([N+](=O)[O-])c(N2CCCCCC2)cc1NCCO,active: 9.2 µM,–
O=S(=O)(c1ccccc1)N(CC(O)COc1ccccc1)c1ccccc1 (stereo not given),"inconclusive: 9.2 µM [cytotoxic, partial curve]",–
O=C(c1ccccn1)c1cc2ccccc2n1S(=O)(=O)c1ccccc1,"inconclusive: 13 µM [cytotoxic, partial curve]",–
O=C(CN1CCN(C(=O)c2ccco2)CC1)Nc1ccc(Br)cc1,"inconclusive: 18.4 µM [cytotoxic, single point]",–
O=C(NCC1CCCO1)c1cccc(S(=O)(=O)Nc2ccccc2Cl)c1 (stereo not given),–,inactive: 8.08%
Cc1ccccc1C(=O)N1CCC(C(=O)N2CCCc3ccccc32)CC1,"inconclusive: 20.6 µM [cytotoxic, partial curve, poor fit]",–
O=C(Nc1ccc(F)cc1)C(c1cccc(F)c1)N1CCN(Cc2c(F)cccc2Cl)CC1 (stereo not given),–,inactive: -12%
C=C(C)CNC(=S)NNC(=O)CCn1c2ccc(Cl)cc2c2cc(Cl)ccc21,"inconclusive: 18.4 µM [cytotoxic, single point]",–
O=C(Cc1ccccc1)Nc1nc(-c2cccs2)cs1,"inconclusive: 22.4 µM [cytotoxic, single point]",–
COC(=O)C1=C(C)N(Cc2ccccc2)C(=O)/C1=C\c1ccco1,"inconclusive: 11.6 µM [cytotoxic, partial curve, poor fit]",–
Cc1ccc(C(=O)N2c3ccccc3N=C(c3ccccc3)C2C(=O)NC(C)C)cc1 (stereo not given),"inconclusive: 16.4 µM [cytotoxic, partial curve]",–
O=C(CN1C(=O)NC2(CCCCCC2)C1=O)c1ccc(Cl)s1,–,inactive: 0.7%

Structure (SMILES),Potency,"activity change, negative = cytotoxicity"
CC(C)(C)c1ccc(C(=O)NC(=S)NCC2CCCO2)cc1 (stereo not given),–,inactive: 0.405%
O=C(NCCCN1CCN(c2ccc(F)cc2)CC1)c1ccc2nc(Cc3ccccc3)oc2c1,"inconclusive: 3.66 µM [cytotoxic, full curve]",–
OC(CNCCCCNCC(O)C(F)(F)F)C(F)(F)F (stereo not given),–,inactive: 17.7%
CC1CCC(NC(=O)CN(C)CC(=O)Nc2ccc(F)cc2)CC1 (stereo not given),active: 23.1 µM,–
C/C(=N\NC(=O)c1c(C)nc2ccccn12)c1cccc([N+](=O)[O-])c1,"inconclusive: 11.6 µM [cytotoxic, partial curve]",–
COc1ccc2c(C)nc(Nc3nc(-c4ccccc4)cc(=O)[nH]3)nc2c1,"inconclusive: 3.66 µM [cytotoxic, partial curve, poor fit]",–
C=CCOc1nc2c(c(=O)n(C)c(=O)n2C)n1Cc1ccc(Cl)cc1,active: 2.91 µM,–
NC(=O)Nc1ccc(C(=O)OCC(=O)Nc2ccc(Cl)cn2)cc1,–,inactive: 0%
O=C1c2ccccc2NC(c2ccc(-c3cccs3)o2)N1O (stereo not given),"inconclusive: 16.4 µM [cytotoxic, single point]",–
CC(C)n1c(O)c(N=NC(=O)C2COc3ccccc3O2)c2ccccc21 (stereo not given),active: 16.4 µM,–
COc1ccc(NC(=O)c2c(-c3ccc(C)cc3)nnc3ccccc23)c(OC)c1,–,inactive: -0.195%
COc1ccc(NC(=O)CN2c3cccc4cccc(c34)S2(=O)=O)c(OC)c1,–,inactive: -22.9%
O=[N+]([O-])c1ccc(Sc2cccc3cccnc23)c2cccnc12,"inconclusive: 20.6 µM [cytotoxic, partial curve]",–
Cc1ccccc1Cn1c(CN2CCC(C(=O)NCCc3ccccc3)CC2)cc2ccccc21,–,inactive: -2.02%
COc1cccc(CN2CCC(Oc3ccc(C(=O)NCc4ccccn4)cc3)CC2)c1O,"inconclusive: 23.1 µM [cytotoxic, partial curve, poor fit]",–
CCOC(=O)c1c(CN2CCC(C)CC2)n(C)c2cc(Br)c(OC)cc12,"inconclusive: 6.51 µM [cytotoxic, partial curve, poor fit]",–
O=C(CN1C(=O)c2ccccc2C1=O)N1CCOCC1,"inconclusive: 29.1 µM [rising, single point]",–
CC(Sc1nnnn1-c1ccccc1)C(=O)NC1CCCC1 (stereo not given),active: 13 µM,–
CCCCNC(=O)c1ccccc1NS(=O)(=O)c1ccc2c(c1)OCCO2,"inconclusive: 18.4 µM [cytotoxic, single point]",–
COC(=O)C1=C(NC(=O)c2ccccc2[N+](=O)[O-])CCS1,–,inactive: -3.55%
COc1ccc(N(CC(=O)Nc2ccccc2F)S(=O)(=O)c2ccc(OC)c(OC)c2)cc1,–,inactive: -4.19%
COc1cc2[nH]c(=O)c(C(=O)NCCCN3CCCCC3)c(O)c2cc1OC,–,inactive: 0.935%
CCN(C(=O)Nc1ccccc1OC)c1c(N)n(Cc2ccccc2)c(=O)[nH]c1=O,"inconclusive: 20.6 µM [rising, single point]",–
CCCCCNC(=O)CCCCCn1c(=O)[nH]c2ccsc2c1=O,"inconclusive: 5.8 µM [rising, full curve, poor fit]",–

Structure (SMILES),Potency,"activity change, negative = cytotoxicity"
CC#Cc1cc2c(cc1O)CCC1C2CCC2(C)C(O)CCC12 (stereo not given),"inconclusive: 1.46 µM [cytotoxic, full curve, poor fit]",–
CN1C(=O)C(O)(CC(=O)/C=C/C=C/c2ccccc2)c2ccccc21 (stereo not given),–,inactive: 6.32%
c1ccc(-c2n[nH]c3c2CCC3)cc1,"inconclusive: 20.6 µM [rising, single point]",–
O=C(Cc1cccc2ccccc12)NN1C(=O)/C(=C\c2cccnc2)SC1=S,–,inactive: 9.66%
C=C1CCC[C@]2(C)C[C@H]3OC(=O)C(CNCCN(C)C)[C@H]3CC12 (stereo not given in full),"inconclusive: 20.6 µM [rising, single point]",–
COC(=O)c1ccccc1NC(=O)Cn1c(-c2nonc2N)nc2ccccc21,"inconclusive: 0.282 µM [cytotoxic, full curve, poor fit]",–
O=C(NCc1ccccc1)C(c1ccco1)N1CCN(c2ccccc2F)CC1 (stereo not given),"inconclusive: 10.3 µM [cytotoxic, partial curve]",–
O=C1/C(=C/c2ccccc2[N+](=O)[O-])COc2ccccc21,–,inactive: -10.4%
CCn1cc(C(=O)OCC(=O)Nc2cccc(C(C)=O)c2)c(=O)c2ccc(C)nc21,"inconclusive: 20.6 µM [cytotoxic, single point]",–
COCCNc1nc(NCc2ccc(NC(C)=O)cc2)c2sc(-c3ccccc3)cc2n1,"inconclusive: 29.1 µM [cytotoxic, single point]",–
Cc1nn(-c2ccccc2)c(C)c1/C=N/NC(=O)c1cc(-c2ccccc2)n[nH]1,"inconclusive: 0.92 µM [cytotoxic, full curve, poor fit]",–
CC1(C(=O)NS(=O)(=O)C2CC2)CCCN(C(=O)c2cccs2)C1 (stereo not given),–,inactive: 2.93%
COc1ccccc1NC(=O)Cn1cc(C(=O)C2CC2)c2ccccc21,"inconclusive: 2.06 µM [cytotoxic, partial curve, poor fit]",–
O=C(COC(=O)c1n[nH]c(=O)c2ccccc12)NCc1ccccc1,"inconclusive: 23.1 µM [rising, single point]",–
CC[C@@H](C)[C@H](C(CC(=O)N1CCCC1[C@@H](OC)[C@H](C)C(=O)N[C@H](Cc1ccccc1)c1nccs1)OC)N(C)C(=O)[C@H](NC(=O)[C@@H](C(C)C)N(C)C)C(C)C (stereo not given in full),active: 0.184 µM,–
C/C(=N\NC(=O)C1CC1)c1ccc(OC(F)F)cc1,active: 13 µM,–
Cc1cc(C)nc(SSc2nc(C)cc(C)n2)n1,"inconclusive: 8.2 µM [rising, single point]",–
COc1cc(C(=O)N/N=C(\C)c2ccccn2)cc(OC)c1OC,active: 7.31 µM,–
CCCCNc1nc(Nc2ccc(C)c(Cl)c2)c2cnn(C)c2n1,–,inactive: -5.62%
CCC(=O)Nc1ccc(NC(=O)CSc2nnnn2Cc2ccccc2)cc1C,–,inactive: -4.12%
CCOC(=O)c1c(C)[nH]c(C)c1S(=O)(=O)N1CCCC(C(=O)N2CCN(c3ccccc3)CC2)C1 (stereo not given),"inconclusive: 10.3 µM [rising, partial curve, poor fit]",–
CC(=O)N1CCOc2ccc(S(=O)(=O)NCC3CCC(C(=O)NCCC(C)C)CC3)cc21 (stereo not given),"inconclusive: 14.6 µM [rising, partial curve]",–
